Each structure is given as a SMILES string. This is one part of the list.

The assay can be described thus: clearance of mutant huntingtin inclusions, primary screen, imaging, HeLa Exon1htt(103Q)mCFP, confocal imaging (AID 853).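 Also: cells exposed to compound for three days before fixation.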 As to conditions: aggregate imaging, measured here: aggregate grain fluorescence fraction, at 1.5 µM, stronger effect = lower value.
For `Cc1cc(C)cc(OP(C)(=O)Nc2ccc(C)cc2C)c1` (centres undefined), the fraction fluorescence in grains was 11.5.
Next, `Cc1ccc(C)c(NP(C)(=O)Oc2ccccc2)c1` (centres undefined): 52.4; `CCOP1(=S)c2c(C)nn(CCC#N)c2N=C(c2ccccc2F)N1C` (centres undefined): 17.7.
To `Cc1nn(-c2ccccc2)c2c1P(=O)(N1CCOCC1)N(C)C(c1ccccc1)=N2` (centres undefined) belongs 25.4; to `O=P1(Nc2ncccn2)COc2ccccc2OC1`, 31.8.
`O=P1(Nc2ccc(Br)cn2)COc2ccccc2OC1` registered a fraction fluorescence in grains of 55.6.
For the molecule `O=P1(Nc2ccccn2)COc2ccccc2OC1`, the fraction fluorescence in grains turned out to be 49.
To `Clc1n[nH]nc1-c1nn[nH][15n]1` belongs 37.2; to `CC1(CBr)Cn2c(nc3ccccc3c2=O)S1` (centres undefined), 8.43.
Take `COP1(=S)c2c(C)nn(CCC#N)c2N=C(c2ccc(F)cc2)N1C` (centres undefined): the fraction fluorescence in grains is 7.85.
To `CCC(C)N(CC(C)C)C(=S)SC(NC(C)=O)C(Cl)(Cl)Cl` (centres undefined) belongs 30.9.
Next, `CP(=S)(Nn1cnnc1)Oc1ccccc1` (centres undefined): 37.1; `CN1CCCC(OC(=O)C(c2ccccc2)c2ccccc2)C1` (centres undefined): 39.6; `Cc1c2non([O-])c-2c(C)[n+](=O)[n+]1[O-]`: 17.5.
In the case of `CCc1ccc(OP(C)(=O)O)cc1`, the fraction fluorescence in grains amounted to 25.5.
To `Cc1nc2ccc3ccccc3c2o1.O=[N+]([O-])c1cc([N+](=O)[O-])c(O)c([N+](=O)[O-])c1` belongs 25.
Take `CP(=O)(OC12CC3CC(CC(C3)C1)C2)OC12CC3CC(CC(C3)C1)C2`: the fraction fluorescence in grains was determined as 16.7.
`CCN(CC)CC(O)COC(=O)C(O)(c1ccccc1)C1CCCCC1` (centres undefined) had a fraction fluorescence in grains of 50.2.
`CCc1nc2c(n1)c1c(non1O)c1c2no[n+]1[O-]` displayed a fraction fluorescence in grains of 42.1.
To `CP(=O)(Oc1ccccc1)N1CCOC1=O` (centres undefined) belongs 5.
In turn, `CC1CCN(C(=O)Oc2c(Cl)cc(Cl)c3cccnc23)CC1` displayed a fraction fluorescence in grains of 43.6.
Next, `O=P(Nc1nccs1)(c1ccccc1)c1ccccc1`: 6.84; `CCOP(C)(=S)SCC(=O)NC(C)(CC)C(=O)O` (centres undefined): 29.5.
Next, `CP(=O)(Nc1ccc2c(c1)OCCO2)Oc1ccccc1` (centres undefined): 40.7; `CN(C)CCOC(=O)C(O)(c1ccccc1)C1CCCCC1` (centres undefined): 46.8.
To `O=C(OC1CN2CCC1CC2)c1cccc(Cl)c1` (centres undefined) belongs 75; to `CP(=O)(Nc1ccccc1)Oc1ccc(F)cc1` (centres undefined), 36.8; to `O=P1(Nc2nc3ccc(Cl)cc3s2)COc2ccccc2O1` (centres undefined), 44.3.
`CP(=O)(Nc1ccccc1F)Oc1ccccc1` (centres undefined) gave a fraction fluorescence in grains of 28.9.

The values are drawn from PubChem BioAssay AID853 (Columbia University Molecular Screening Center, 2007).
